Reference: US20230416341A1 (priority 2020, published 2023)

How the values were obtained:
[1] = Fmoc solid-phase peptide synthesis; Fmoc-Ala-Wang polystyrene resin; PyBOP/NMM; DIC/HOAt; details: whole synthesis, scale 100 μmol
[2] = general procedure: Fmoc solid-phase peptide synthesis; 2-chlorotrityl chloride resin (1.22 mmol/g); Rink Amide resin (0.7 mmol/g); Fmoc-Ala-Wang polystyrene resin; PyBOP/NMM; DIC/HOAt; details: coupling step

“YPESDSAKDDGNQEKEKALLVKVQERSDDGD ? DE ? DNDETTHTPDPSAPTA RPRIREHQA” showed an isolated mass [1] of 40.6 mg, an isolated yield [1] of 5.7% and a step yield [2] of 55%.
